## Assay results

From PubChem BioAssay record AID1224904 (Broad Institute, 2016).

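Control-channel Italica luciferase signal in doxycycline-induced 293T-iDUX4 cells, given as percent activity after a 24-hour treatment.
The test concentration is not given here.
Percent change in the Italica control signal; more negative values mean stronger inhibition, which points to nonspecific, tet-on or cytotoxic effects.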

Values are in %.
Common to all entries: measured here: Italica tet-on control reporter.
This is a side read-out of the assay, for part of the compounds, not drawn at random.

Compound: COc1ccc2c3c(n(C)c2c1)[C@@H](CO)N(Cc1ccncc1)CC31CCN(C(=O)Cc2ccncc2)CC1
activity change (%): -36.44

Compound: COc1ccccc1C#Cc1ccc2c(c1)[C@@H]1[C@@H](CCN1C(C)=O)[C@@H](CO)N2C
activity change (%): 1.959

Compound: O=S(=O)(c1cccc(F)c1)N1CC[C@H]2[C@H](CO)Nc3ccc(-c4cccc(F)c4)cc3[C@H]21
activity change (%): -2.204

Compound: C/C=C/c1ccccc1[C@H]1[C@@H](CO)N(c2nc(CC)cs2)[C@H]1C#N
activity change (%): -18.5

Compound: Cc1ccccc1-c1ccc(C2[C@@H]3CN(C(=O)NC4CCCCC4)C[C@H]2N3)cc1 (stereo partly shown)
activity change (%): -50.33

Compound: CCS(=O)(=O)N1CC2(CN(Cc3ccc4c(c3)OCO4)[C@@H](CO)c3c2c2ccc(OC)cc2n3C)C1
activity change (%): -5.57

Compound: COc1ccc(C#Cc2ccc([C@@H]3[C@@H](CO)N4CCCCN(S(=O)(=O)c5cn(C)cn5)C[C@H]34)cc2)cc1
activity change (%): 1.078

Compound: CCCC#Cc1ccc([C@H]2[C@H]3CN(C(=O)c4ccc5c(c4)OCO5)CCCCN3[C@H]2CO)cc1
activity change (%): -6.178

Compound: COc1cccc(-c2ccc([C@@H]3[C@@H](CO)N4CCCCN(C(=O)c5ccc6c(c5)OCO6)C[C@@H]34)cc2)c1
activity change (%): -24.47

Compound: COc1ccc2c3c([nH]c2c1)[C@@H](CO)N(C(=O)Nc1ccc(F)cc1)CC31CN(Cc2cc(-c3ccccc3)on2)C1
activity change (%): -24.68

Compound: COc1ccc(C#Cc2ccc([C@H]3[C@H]4CN(C(=O)Cc5ccccc5)CCCCN4[C@H]3CO)cc2)cc1
activity change (%): -29.22

Compound: C[C@H](CO)N1C[C@H](C)[C@@H](CN(C)C(=O)Nc2cccc(Cl)c2Cl)OCc2ccccc2-c2c(n(C)c3ccccc23)C1=O
activity change (%): -93.37

Compound: O=C(C[C@H]1CC[C@@H]2[C@H](COC[C@@H](O)CN2Cc2ccc(Cl)cc2)O1)NCc1cccc(F)c1
activity change (%): -1.782

Compound: O=C(C1CCOCC1)N1CC[C@@H]2[C@H]1c1cc(-c3ccc(F)cc3)ccc1N[C@@H]2CO
activity change (%): -19.77

Compound: C[C@H](CO)N1C[C@H](C)[C@H](CN(C)S(=O)(=O)c2cccs2)OCc2ccccc2-c2c(n(C)c3ccccc23)C1=O
activity change (%): -12.66

Compound: N#C[C@H]1[C@@H](c2ccccc2C2=CCCC2)[C@@H](CO)N1C(=O)NC1CCCCC1
activity change (%): -17.94

Compound: COc1ccc(C#Cc2ccc([C@@H]3[C@H](CO)N4CCCCN(Cc5ccccc5F)C[C@@H]34)cc2)cc1
activity change (%): -68.97

Compound: O=C(c1ccc2c(c1)OCO2)N1CC(=O)N2[C@@H](CO)[C@@H](c3ccc(C#Cc4ccccc4)cc3)[C@@H]2C1
activity change (%): -36.94

Compound: CO[C@@H]1CN(C)C(=O)c2ccc(NC(=O)c3cccc(Oc4ccccc4)c3)cc2OC[C@H](C)NC[C@@H]1C
activity change (%): -32.2

Compound: O=C(C[C@H]1C[C@H]2c3cc(NC(=O)C4CCC4)ccc3O[C@H]2[C@H](CO)O1)NCc1ccc(Cl)cc1
activity change (%): -7.351

Compound: COc1ccc(S(=O)(=O)N2CC3(CN(C(=O)c4cccnc4)[C@@H](CO)c4c3c3ccc(OC)cc3n4C)C2)cc1
activity change (%): 3.886

Compound: COc1ccc(C#Cc2ccc([C@H]3[C@H](CO)N4CCCCN(C(=O)Cc5cccnc5)C[C@@H]34)cc2)cc1
activity change (%): -22.09

Compound: C[C@H]1CN([C@@H](C)CO)C(=O)CCCn2nncc2CO[C@H]1CN(C)S(=O)(=O)c1ccc(-c2ccccc2)cc1
activity change (%): -12.92

Compound: COc1cccc(CN2[C@@H]3CNC[C@H]2C3c2ccc(-c3ccccc3C)cc2)c1 (stereo partly shown)
activity change (%): -19.41

Compound: CC(C)CC#Cc1ccc([C@@H]2[C@@H](CO)N3C(=O)CN(C(=O)c4cccc(F)c4)C[C@@H]23)cc1
activity change (%): -4.772

Compound: COc1ccc(S(=O)(=O)N2CCC3(CC2)CN(C(=O)CN(C)C)[C@@H](CO)c2c3c3ccc(OC)cc3n2C)cc1
activity change (%): -66.34

Compound: COc1ccc(-c2ccc3c(c2)[C@@H]2[C@@H](CCN2C(=O)NC2CCCCC2)[C@H](CO)N3C)cc1
activity change (%): -40.88

Compound: O=C(Cc1cccnc1)N1CC(=O)N2[C@H](CO)[C@@H](c3ccc(C#CC4CCCCC4)cc3)[C@@H]2C1
activity change (%): -15.43

Compound: O=C(C[C@@H]1C[C@H]2c3cc(NC(=O)c4ccc5c(c4)OCO5)ccc3O[C@H]2[C@H](CO)O1)NCC1CC1
activity change (%): -5.604

Compound: O=C(c1cccc(F)c1)N1CCCCN2[C@H](CO)[C@@H](c3ccc(-c4ccccc4)cc3)[C@@H]2C1
activity change (%): -0.143

Compound: CN(C)CC(=O)N1[C@@H]2Cn3c(ccc(-c4ccccc4)c3=O)[C@H]1[C@@H](C(=O)N1CCOCC1)[C@@H]2CO
activity change (%): -2.315

Compound: C[C@@H]1CN([C@H](C)CO)C(=O)CCCn2nncc2CO[C@@H]1CN(C)Cc1ccc(Cl)c(Cl)c1
activity change (%): -14.63

Compound: Cc1ccccc1-c1ccc([C@H]2[C@H](CO)N3CCCCN(S(=O)(=O)Cc4ccccc4)C[C@@H]23)cc1
activity change (%): -4.839

Repeated from the top, 3 entries:

Compound	activity change (%)
COc1ccc2c3c(n(C)c2c1)[C@@H](CO)N(Cc1ccncc1)CC31CCN(C(=O)Cc2ccncc2)CC1	-36.44
COc1ccccc1C#Cc1ccc2c(c1)[C@@H]1[C@@H](CCN1C(C)=O)[C@@H](CO)N2C	1.959
O=S(=O)(c1cccc(F)c1)N1CC[C@H]2[C@H](CO)Nc3ccc(-c4cccc(F)c4)cc3[C@H]21	-2.204